From the supplement of paper PMC8007513
The other results are listed elsewhere or left out. Single values are uncertain, as repeats are few or missing.

These compounds were tested on Saccharomyces cerevisiae BY4743 (assay: growth (OD600) relative to untreated control; higher = less growth inhibition). Details: compound concentration: 133 uM; 20 h.
Method: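 NMCCC compounds (133 uM, no IPBC) tested alone against Saccharomyces cerevisiae BY4743 in YPD, 96-well plates, starting OD600 ~0.1. Growth was read as OD600 at 20 h and expressed as % of the untreated control. Single pass.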
In the case of `O=C(NCc1ccco1)N1CCN(c2ccccn2)CC1`, the growth is reported as 96.7%. Compound `N#Cc1ccsc1NC(=O)CCNC1(c2ccc(Br)cc2)CCCC1` has a growth of 107%. For `COC(=O)c1ccc(CS(=O)(=O)N2CCCC2c2ccc(OC)c(OC)c2)cc1` (stereo not given), the growth was 111%. Compound `Cc1noc2ncnc(NC(C)CCc3ccccc3)c12` (stereo not given) has a growth of 88.3%. For `O=C(CCNc1nc(Cl)nc2nc[nH]c12)NCCc1c[nH]cn1`, the growth was 105%. `CCOC1=CC(=CC=C1O)C\2CC(=O)N\C(=C2C#N)SCC(=O)NC3=CC=C(C)C=C3C` (stereo not given) showed a growth of 102%. `CCN(CC)S(=O)(=O)c1cc(C(=O)NCc2cn3cc(Cl)ccc3n2)ccc1Cl` was tested, and the growth was 104%. Work on `CC(C)N(C(=O)CSc1nnc(-c2cccnc2)n1-c1cccc(C(F)(F)F)c1)C(C)C` yielded a growth of 108%. Compound `Cn1c(Cc2nnn(Cc3ccc(Cl)cc3Cl)n2)nnc1SCC#N` has a growth of 105%. `CCC(C)NC(=O)CCc1c(C)nc2nc(-c3cc(OC)cc(OC)c3)nn2c1C` (stereo not given) showed a growth of 112%. With `Fc1ccc(-c2csc(-c3cccs3)n2)cc1` the growth was 88.8%. Work on `CC1=CC=C(C)C(=C1)[S](=O)(=O)N(CC2=CC=CC=C2)C\3C[S](=O)(=O)\C=C3` (stereo not given) yielded a growth of 99%. Compound `COC(=O)CN(c1cc(C)cc(C)c1)S(=O)(=O)c1cc2c(cc1C)N(C(C)=O)CCO2` has a growth of 108%. Work on `CCC(=O)OCC/1=C/C(=O)N/2\N=C(/SC2=N1)C(C)C` yielded a growth of 102%. Work on `CC(=O)c1ccc(S(=O)(=O)N(C)CC(=O)Nc2ncccc2C)cc1` yielded a growth of 99.8%.
